Source: patent publication US20210228523A1, “MODULATORS OF SESTRIN-GATOR2 INTERACTION AND USES THEREOF” (Navitor Pharmaceuticals, Inc., priority 2017, published 2021)

Test system: Male Sprague Dawley rats
Assay: Novelty Suppressed Feeding Test (NSFT) with home cage feeding control
Format: in vivo, rat
Conditions: for home cage food consumption: Example G, day 10
Description: Behavioral Analysis Using the Novelty Suppressed Feeding Test (NSFT): The NSFT was conducted as previously described (Warner-Schmidt, J. L. & Duman, R. S. PNAS 104(11): 4647-52 (2007)). Rats were fasted in their home cages for 20 hr and then placed in a Plexiglas open field (76.5 cm×76.5 cm×40 cm) with a small amount of food in the center. Animals were allowed to explore the open field for 8 min and the latency to feed (s) was recorded.
Chronic Unpredictable Stress (CUS) Conditions: Rats were exposed to a variable sequence of 12 unpredictable stressors, preventing habituation as described (Li, N. et al., Biol Psychiatry 69(8): 754-61 (2011)). The following twelve stressors were applied (2 per day, for 25 days): cage rotation, light on, light off, cold stress, isolation, swim stress, food and water deprivation, wet bedding, stroboscope, cage tilt, odor exposure and group housing. The animals in non-stressed (NS) groups were housed normally without the application of external stressors. Both NS and CUS rats were handled and weighed weekly.
Study Design. Thirty-two (32) male Sprague Dawley Male rats weighing between 175 and 200 g were randomized into 4 study groups (n=8/treatment group), following a 5-day acclimation period. On study day 0, rats received a single dose of either saline (Sal) or ketamine (Ket) in Groups 1 and 2, respectively, by intraperitoneal injection (i.p.). […] On day 2, 48 hrs after dosing, the LMA of all rats was measured in an open field. […]
Study Design: Fifty-six (56) male rats weighing between 175 and 200 g were randomized into 4 study groups (n=14/group), following a 5-day acclimation period. […] Crude synaptosomes were prepared from the PFC and the synaptic proteins, GluR1 and PSD95 were quantitated by WB.
Study Design. […] Each treatment group was assessed at the designated time following oral dosing in FST 24 hrs (day 1) LMA 48 hrs (day 2) and the NSFT 72 hrs (day 3 following a 20 hr period of fasting). LMA was measured to rule out overall changes in generally locomotor activity. […]

Row | SMILES | home cage feeding (overall food consumption) (Example F, NV-5138 160 mg/kg oral, immediately following the NSFT) | home cage food consumption (NV-5138 160 mg/kg oral single dose) | home cage food consumption (Ket 10 mg/kg i.p. single dose)
1 | CC(C)(C[C@H](N)C(=O)O)C(F)F [NV-5138] | No significant differences | no difference | 
2 | CNC1(c2ccccc2Cl)CCCCC1=O (stereo not drawn) [Ket, ketamine, reference compound] |  |  | no difference
